Test results reported in PubChem BioAssay AID2417 (National Center for Advancing Translational Sciences (NCATS), 2010).
Among all 140,000 compounds or so, about 4,300 (3.1%) were called active. Inconclusive results, whose numbers are uncertain, are shown with a selection of clear calls.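 Rule for the calls: active = readout at or below -70, meaning at least 70% loss of cells showing the perinucleolar compartment, a nuclear body marking cancer cells; inconclusive = readout between -30 and a set limit; inactive = the rest.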

Test: High Content Assay for Compounds that inhibit the Assembly of the Perinucleolar Compartment;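 note: plate controls were DMSO wells for no effect and camptothecin positive control wells for full effect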
Details: PC3M PTB-GFP, PNC prevalence imaging, 16 h; at 10 µM; active compounds read low
Procedure, shortened: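 Compounds are pinned in duplicate onto adhered PC3M cells stably expressing GFP-tagged PTB and incubated 16 h at 37 C. Cells are then fixed, nuclei stained with Hoechst, and PNC-positive cells counted.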

Row | SMILES | activity change (PNC), negative = inhibition
1 | Cc1cccc(C)c1NC(=O)C(c1ccccc1)N1CCN(C(=O)c2ccco2)CC1 (configuration not stated) | inactive: 34.3%
2 | CCOC(=O)c1c(C)sc2c1N(C(=O)CN(CC)CC)c1cc(Cl)ccc1S2 | inconclusive: -71.3%
3 | CCOC(=O)c1c(NC(=O)CN(CC)CC)sc2c1CCC2 | inconclusive: -39.6%
4 | CCCNCC(O)COc1ccccc1C(=O)CCc1ccccc1 (configuration not stated) | inactive: -12.8%
5 | Cc1ccc(NC(=S)NNc2ncc(C(F)(F)F)cc2Cl)cc1 | inconclusive: -48.5%
6 | O=C(CNC(=O)c1ccc(Br)cc1)NCCc1nc2ccccc2[nH]1 | inactive: -4.53%
7 | O=C1CC(N2CCN(S(=O)(=O)c3cccc(C(F)(F)F)c3)CC2)C(=O)N1Cc1ccccc1 (configuration not stated) | inconclusive: -36.8%
8 | CC1Cc2cc(-c3csc(NC(=O)Cc4ccccc4)n3)ccc2N1S(C)(=O)=O (configuration not stated) | inconclusive: -40.9%
9 | COc1ccc(/C=N/NC(=O)CCc2c(C)n[nH]c2C)cc1OC | inconclusive: -33.7%
10 | C/C(CC(=O)NCc1ccccc1)=N\NC(=O)c1cnccn1 | inconclusive: -41%
11 | CCc1nnc(NC(=O)c2ccc(-c3ccc(Cl)cc3)o2)s1 | inconclusive: -31.1%
12 | O=C(CSc1nnc(Cc2cc(=O)[nH]c(=O)[nH]2)n1-c1ccccc1)NCC1CCCO1 (configuration not stated) | inconclusive: -48.3%
13 | CC(C)CCNC(=O)C1CCCCN1S(=O)(=O)c1ccc(F)cc1 (configuration not stated) | inconclusive: -57.6%
14 | Nc1ccc(C(=O)OCC(=O)N2CCc3ccccc3C2)cc1[N+](=O)[O-] | inactive: 38.8%
15 | Cc1cc(C(=O)N/N=C/c2cccc(Cl)c2Cl)no1 | inconclusive: -44.9%
16 | COc1cccc(NC(=O)C2CC(=O)OC23CCOC(C)(C)C3)c1 (configuration not stated) | inconclusive: -48.5%
17 | CCOc1cc(S(=O)(=O)N2CCC(C(N)=O)CC2)ccc1F | inconclusive: -50.5%
18 | CC(C)C(=O)Nc1ccc(N2CCN(S(C)(=O)=O)CC2)cc1 | inconclusive: -36.8%
19 | O=C(NCCc1ccccc1)Nc1cccc(Cl)c1 | inactive: 0.197%
20 | COc1ccc(S(=O)(=O)Nc2cc(C)c(O)c(S(=O)(=O)c3ccccc3)c2)cc1 | active: -102%
21 | Cc1cccc(C(=O)Nc2ccccc2SCC2CSc3nc4ccccc4c(=O)n32)c1 (configuration not stated) | inconclusive: -66.3%
22 | N/C(Cc1cccc2ccccc12)=N\OC(=O)c1cccs1 | inactive: -28.9%
23 | O=C(CN1CCOCC1)Nc1ncc(Cc2cccc(Cl)c2)s1 | inconclusive: -78.8%

Row | SMILES | activity change (PNC), negative = inhibition
24 | Cc1ccc(C(=O)Nc2cc(Cl)ccc2Oc2ccccc2)cc1[N+](=O)[O-] | inconclusive: -37.7%
25 | CCOC(=O)COc1nc(Nc2ccccc2C)nc(N(C)C)n1 | inconclusive: -51.2%
26 | C=CCN(C#N)c1nc(OC)nc(N2CCCC2)n1 | inconclusive: -67.6%
27 | Nc1nnc(-c2ccccc2)c(-c2ccccc2)n1 | inconclusive: -60.8%
28 | Cc1ccc(-c2n[nH]c(=S)n2/N=C\c2ccco2)cc1 | inconclusive: -36.5%
29 | O=C(Cc1cccs1)Nc1nc2c(s1)CCCC2 | active: -113%
30 | COCCCN=C(c1ccco1)n1c(=S)nc(-c2ccco2)n(CCCOC)c1=S | inconclusive: -68%
31 | Cc1cccc(N2CCN(S(=O)(=O)c3ccc(S(=O)(=O)N4CCCC4)cc3)CC2)c1C | inconclusive: -51.3%
32 | COC(=O)/C(=C/Nc1cccc2ccccc12)[N+](=O)[O-] | inconclusive: -45.1%
33 | Cc1ccc(C)c(N2CCN(C(=O)CN(C)S(=O)(=O)c3ccc4c(c3)CCC(=O)N4)CC2)c1 | inconclusive: -53.5%
34 | NC12CCc3c(no[n+]3[O-])C1(O)CC(c1ccccc1)=[N+]2[O-] (configuration not stated) | inactive: -0.651%
35 | C/C=C/c1ccc(OCCCNC2CCCC2)c(OC)c1 | inconclusive: -58.6%
36 | Cc1onc(-c2ccccc2)c1C(=O)Nc1nc2c(s1)C(=O)CC(C)(C)C2 | inconclusive: -63.3%
37 | Cc1ccc(C(=O)CCNc2cccc(Br)c2)o1 | inactive: 26.8%
38 | O=C(Nc1ccccc1C(=O)OCC(=O)c1c[nH]c2ccccc12)c1ccco1 | inactive: 59.4%
39 | COc1cccc(C(=O)c2cc3ccc(O)cc3oc2=O)c1 | inconclusive: -70.3%
40 | O=C1NC2(CCCCC2)Cc2ccccc21 | inconclusive: -48.7%
41 | CC1CCCCC1NC(=O)Cn1nnc(-c2ccc(Cl)cc2)n1 (configuration not stated) | inconclusive: -41.6%
42 | COc1ccc(C(=O)CSc2ccc(-c3ccccc3)nn2)cc1 | inconclusive: -62.9%
43 | Cc1ccc2c(c1)CCCN2C(=O)c1cc2ccccc2oc1=O | inactive: -28%
44 | C/C(=N\NS(C)(=O)=O)c1ccc(C)cc1 | inconclusive: -51.5%
45 | CCOc1cc(C)c(S(=O)(=O)N2CCCC2)cc1C | inactive: 47.4%
46 | Cc1ccc(S(=O)(=O)N2CCN(C(=O)CSC3CCCC3)CC2)c(C)c1 | inconclusive: -63.7%

Taken from above.
activity change (PNC), negative = inhibition with O=C(CSc1nnc(Cc2cc(=O)[nH]c(=O)[nH]2)n1-c1ccccc1)NCC1CCCO1 (configuration not stated) reads inconclusive: -48.3%
activity change (PNC), negative = inhibition with CC(C)C(=O)Nc1ccc(N2CCN(S(C)(=O)=O)CC2)cc1 reads inconclusive: -36.8%

Remaining list, next part.

Row | SMILES | activity change (PNC), negative = inhibition
47 | O=C(c1cc(-c2cccnc2)nc2ccc(Br)cc12)N1CCN(c2ncccn2)CC1 | inconclusive: -76.9%
48 | CCn1cc(C(=O)OCC(=O)Nc2ccc(S(=O)(=O)N3CCCC3)cc2)c(=O)c2ccc(C)nc21 | inactive: 37%
49 | Cc1cccc(N2C(=O)CC(N3CCN(c4ccccc4)CC3)C2=O)c1 (configuration not stated) | inactive: 0.186%
50 | O=[N+]([O-])c1cccc2cn[nH]c12 | inactive: 16.6%
51 | Cc1ccc2c(c1)NC(=O)C(CC(=O)NC1CCCCC1C)O2 (configuration not stated) | inconclusive: -67.6%
52 | CCOC(=O)Cn1c(=O)n(Cc2ccco2)c(=O)c2ccc(C(=O)NCCc3ccccc3)cc21 | inconclusive: -34.6%
53 | Cc1ccc(Cl)cc1N1CCN(Cc2nc3ccsc3c(=O)[nH]2)CC1 | inactive: 24.5%
54 | COc1cc(C2=NOC(C(=O)N3CCCc4ccccc43)C2)cc(OC)c1OC (configuration not stated) | inconclusive: -43.1%
55 | CC1=C(C(=O)OCc2ccccc2)C(c2ccc(C(F)(F)F)cc2)NC(=O)N1CCCCCC(=O)O (configuration not stated) | inconclusive: -61%
56 | CNc1nn(-c2cccc(Cl)c2)nc1N | inconclusive: -56.7%
57 | CCOc1ccccc1C(=O)Nc1nnc(C(C)C)s1 | inactive: 25.4%
58 | O=C1c2ccccc2C(=O)N1CCCCn1c(=O)oc2ccccc21 | inactive: 4.02%
59 | COc1ccc(-n2cnc3cc(NS(=O)(=O)c4ccccc4)ccc32)cc1 | inactive: -4.95%
60 | Cn1c(NC(=O)c2ccco2)c(-c2ccccc2Cl)c(=O)c2ccccc21 | inconclusive: -30.8%
61 | CCNC(=O)c1sccc1-n1cccc1 | inconclusive: -38.7%
62 | COc1cccc(-c2nc(=S)c3c(n2Cc2ccco2)CCCC3)c1 | inconclusive: -44.1%
63 | CCC1(O)CC(C(=O)OC)=NN1C(=O)c1ccccc1 (configuration not stated) | inconclusive: -38.2%
64 | COc1ccc(CCNC(=O)CSc2nncn2N)cc1OC | active: -82.3%
65 | O=C(CCC(=O)N/N=C/c1c[nH]c2ccccc12)NCc1ccccc1 | inactive: 49%
66 | CSc1nc(N(C)NC(=O)c2ccc(F)cc2)c2ccccc2n1 | active: -82.6%
67 | CCOc1ccccc1N1CCN(S(=O)(=O)c2ccc(F)c(F)c2)CC1 | inconclusive: -78.3%
68 | N#Cc1c(Nc2ccccc2)sc(C(=O)C2CC2)c1N | inconclusive: -37.6%
69 | FC(F)(F)c1cccc(NC(=S)NCCN2CCOCC2)c1 | inconclusive: -38.5%

From entry 65 as far as 67, as listed above:
Row | SMILES | activity change (PNC), negative = inhibition
65 | O=C(CCC(=O)N/N=C/c1c[nH]c2ccccc12)NCc1ccccc1 | inactive: 49%
66 | CSc1nc(N(C)NC(=O)c2ccc(F)cc2)c2ccccc2n1 | active: -82.6%
67 | CCOc1ccccc1N1CCN(S(=O)(=O)c2ccc(F)c(F)c2)CC1 | inconclusive: -78.3%

(next part)

Row | SMILES | activity change (PNC), negative = inhibition
70 | CCOC(=O)c1c(NCC(C)C)c2ccccc2[nH]c1=O | inconclusive: -48.8%
71 | CCOCC(=O)N1CCCC(C(=O)OCC)C1 (configuration not stated) | inconclusive: -42.4%
72 | COCc1cc(=O)[nH]c(Nc2nc(C)c3ccccc3n2)n1 | inactive: -23.4%
73 | O=C(Cn1c2ccccc2c(=O)c2ccccc21)Nc1ccccc1F | inconclusive: -57.5%
74 | NC(=O)C1CCN(C(=O)Cn2cccc2C(=O)c2ccccc2)CC1 | inconclusive: -33.5%
75 | CN(C)CCNC(=O)Nc1cccc(Cl)c1Cl | inactive: 17.8%
76 | CCCCn1c(-c2cc(Cl)ccc2OC)n[nH]c1=S | inactive: 47.3%
77 | CCCc1cc(C(=O)N2CCN(c3ccccc3C)CC2)cs1 | inconclusive: -38.4%
78 | COc1cc(NC(=O)C(C)Oc2ccccc2)c(C(=O)O)cc1OC (configuration not stated) | inconclusive: -49.7%
79 | O=C(c1cc(-c2cccc(O)c2)on1)N1CCCCC1 | inconclusive: -62.1%
80 | CCOC(=O)c1[nH]c2cc(OC)c(OC)cc2c1NC(=O)CN1CCN(C)CC1 | inconclusive: -43.6%
81 | CCC1(CC)C(=O)N=C2c3ccccc3C(=O)N21 | inconclusive: -40.2%
82 | CCOC(=O)c1c(C)[nH]c(C)c1C(=O)CSc1ncccn1 | inconclusive: -32.5%
83 | CCCC(=O)C1=C(O)C(C(=O)OC)C(C)(C)CC1=Nc1ccccc1 (configuration not stated) | inconclusive: -33.7%
84 | C=CCn1c(=S)[nH]c2ccccc2c1=O | inactive: -24.3%
85 | COc1cc2[nH]c(=O)n(CCC(=O)NC3CCN(Cc4ccccc4)CC3)c(=O)c2cc1OC | inconclusive: -43.5%
86 | O=C(Nc1nccs1)c1ccccc1[N+](=O)[O-] | inactive: -14.6%
87 | CC(Sc1ccccc1)C(=O)Nc1ccccc1C(=O)N1CCOCC1 (configuration not stated) | inconclusive: -39.5%
88 | Cc1cc(C)nc(SCC(=O)O)n1 | inactive: -12.5%
89 | Cc1cc(C)n(-c2ccc(C(=O)OCC(=O)NCc3ccc(Cl)cc3)cc2)n1 | inconclusive: -39.7%
90 | COC(=O)c1c(NC(=O)c2cccs2)sc2c1CCC(C)C2 (configuration not stated) | inconclusive: -38.2%
91 | Cc1ccc(C)c2[nH]c(=O)c(CCNC(=O)CC(C)C)cc12 | inconclusive: -51.3%
92 | N#CCCCSc1nnc(CSc2nc3ccccc3s2)n1-c1ccccc1 | inactive: 0.252%
